Laboratory results from paper PMC12077101.
No constants are given. Whether binding was seen depends on the method and setting. Binding seen in cells or lysates may run through a third protein. Binding calls can cover weak binding; strength is not graded here. Where a sequence is shown, tags or fusion partners need not be part of it.

Target: Flag-tagged STING truncation containing the ligand-binding domain (human)
Assay: co-IP; HEK293T cells co-transfected with both tagged plasmids for 24 h; Pierce IP Lysis Buffer; anti-Flag antibody or normal IgG overnight at 4°C, beads 6 h, six washes with cold PBS; immunoblot

- binding: binds weakly
B1: V5-AUP1 (ancient ubiquitous protein 1), full length, expressed in HEK293T cells (protein, UniProt Q9Y679 1-410)
chain: MELPSGPGPERLFDSHRLPGDCFLLLVLLLYAPVGFCLLVLRLFLGIHVFLVSCALPDSVLRRFVVRTMCAVLGLVARQEDSGLRDHSVRVLISNHVTPFDHNIVNLLTTCSTPLLNSPPSFVCWSRGFMEMNGRGELVESLKRFCASTRLPPTPLLLFPEEEATNGREGLLRFSSWPFSIQDVVQPLTLQVQRPLVSVTVSDASWVSELLWSLFVPFTVYQVRWLRPVHRQLGEANEEFALRVQQLVAKELGQTGTRLTPADKAEHMKRQRHPRLRPQSAQSSFPPSPGPSPDVQLATLAQRVKEVLPHVPLGVIQRDLAKTGCVDLTITNLLEGAVAFMPEDITKGTQSLPTASASKFPSSGPVTPQPTALTFAKSSWARQESLQERKQALYEYARRRFTERRAQEAD
